Measured values: paper PMC5308254, “Bioactivity of Natural and Engineered Antimicrobial Peptides from Venom of the Scorpions Urodacus yaschenkoi and U. manicatus” (Toxins, 2017)
No end group written: not given here.

What was measured:
Details in all cases: calculated based on HC50 values (pig erythrocytes) and MIC; ratio HC50 / MIC
[1] = tested on: Micrococcus luteus (DSM20030); assay: Growth inhibition assay (MIC), M. luteus; assay type: cell-based
Procedure: (§1) The minimal inhibitory concentration (MIC) of each AMPs was determined against the Gram-positive bacteria Listeria monocytogenes (DSM20600), L. grayi (DSM20601), L. fleischmannii (DSM24998), Staphylococcus aureus (DSM2569) and Micrococcus luteus (DSM20030), and the Gram-negative species Escherichia coli (D31) and Pseudomonas aeruginosa (DSM50071). The scorpion peptides were prepared at concentrations of 0.015–250 μM. The assays were carried out in 384-well plates (Greiner Bio One, Frickenhausen, Germany) using Brain Heart Infusion Broth (BHIB) medium for Listeria spp., Tryptic Soy Broth (TSB) for S. aureus, and lysogeny broth (LB) for the others. The bacteria were cultivated overnight at either 37 °C (Listeria spp., S. aureus, E. coli and P. aeruginosa) or 30 °C (M. luteus) and subcultured in fresh media before the growth inhibition assays. Growth inhibition was measured as previously described.

[2] = tested on: L. fleischmannii (DSM24998); assay: Growth inhibition assay (MIC), L. fleischmannii; assay type: cell-based, Listeria fleischmannii
Procedure: as §1

L. grayi (DSM20601) = assay: Growth inhibition assay (MIC), L. grayi; assay type: cell-based, Listeria grayi
Procedure: as §1

Substance | Therapeutic index (TI) M. luteus [1] | Therapeutic index (TI) L. fleischmannii [2] | Therapeutic index (TI) L. grayi (L. grayi (DSM20601))
FPFLKLSLKIPKSAIKSAIKRL-NH2 [D10] | 6904 | 57.53 | 215.75
ILSAIWSGIKGLL-NH2 [Uy17] | 9.22 |  | 
GFWGKLWEGVKNAI-NH2 [UyCT1] | 142.50 | 35.62 | 35.62
FPFLLSLIPSAISAIKRL-NH2 [Uy234] | 52.25 |  | 26.12
ILSAIWSGIKSLF-NH2 [UyCT3] | 14.53 | 14.53 | 7.26
IFKAIWSGIKSLF-NH2 [Um5] | 29.62 | 29.62 | 29.62
FLSTIWNGIKSLF-NH2 [D2] | 6.12 | 1.63 | 
GFWGKLWEGVKNAIKKK-NH2 [D11] | 4440 | 1110 | 1110
GFWGKLWEGVKSAI-NH2 [Um3] | 63.10 | 31.55 | 31.55
FLSTIWNGIKGLL-NH2 [Uy192] | 10.37 | 38.90 | 10.37
IFGAIWSGIKSLF-NH2 [D1] | 11.99 | 11.99 | 5.99
IWSAIWSGIKGLL-NH2 [UyCT5] | 5.14 | 2.57 | 2.57
ISQSDAILSAIWSGIKSLF-NH2 [Um2] | 32.25 |  | 
GFWGKLLEGVKKAI-NH2 [D5] | 204.50 | 109.06 | 204.50
